{"source": "PubChem BioAssay AID540256", "about": "(National Center for Advancing Translational Sciences (NCATS), 2011)", "note": "Where “and” joins values, the source holds several entries; their conditions need not be identical. Equal values may be shown once. Hit rate of the full screen: of about 300,000 compounds, about 3,700 (1.2%) were called active. This list was built around the results that the source calls inconclusive (neither active nor inactive); the mix of calls is not that of the screen. The call rests on the fitted dose curve; tested in HEK293 cells. A potency beside an inconclusive call is a rough fit, not a confirmed value. Potency means the concentration at half of the fitted maximal effect."}
{"assay": "qHTS for Inhibitors of binding or entry into cells for Lassa Virus; further: nearly all actives have a fitted effect of over 50% in size", "settings": "Lassa virus pseudotype entry inhibition, cell reporter; series mostly up to 37.9 µM"}
{"smiles": "COc1ccc(S(=O)(=O)NCC(c2cccs2)N2CCc3ccccc3C2)cc1", "note": "(stereo not given)", "Potency": "inactive"}
{"smiles": "Cc1c(Br)c(C(=O)NCc2cc3cc(Cl)ccc3[nH]2)nn1C", "Potency": "inconclusive: 29.1 µM [inhibitor, single point]"}
{"smiles": "CCN(CC)S(=O)(=O)c1ccc(=O)n(CC(=O)N2Cc3ccccc3CC2C(N)=O)c1", "note": "(stereo not given)", "Potency": "inactive"}
{"smiles": "Cc1[nH]c2ccccc2c1/C=C/c1nc2ccccc2c(=O)[nH]1", "Potency": "inconclusive: 12.6 µM [inhibitor, single point]"}
{"smiles": "Oc1ccccc1-c1nc2cnccn2c1Nc1ccc2c(c1)OCCO2", "Potency": "inactive"}
{"smiles": "Cc1ccc(-n2ncc3c(Nc4ccc(Oc5ccccc5)cc4)ncnc32)c(C)c1", "Potency": "inconclusive: 7.08 µM [inhibitor, partial curve]"}
{"smiles": "CCc1nc(Sc2nnnn2-c2ccccc2)c2c3c(sc2n1)CCCC3", "Potency": "inconclusive: 35.5 µM [inhibitor, single point]"}
{"smiles": "COc1ccc(OC)c(-c2noc(CSc3nnc(-c4ccccc4)n3-c3ccccc3)n2)c1", "Potency": "inactive"}
{"smiles": "CC(C)NCC(O)c1ccc(O)c(O)c1", "note": "(stereo not given)", "Potency": "inactive"}
{"smiles": "Nc1nnc(-c2ccccc2F)s1", "Potency": "inconclusive: 35.5 µM [activator, single point]"}
{"smiles": "COc1ccc(OC)c(NC(=O)Cn2cc(C(=O)c3ccccc3)c3ccccc32)c1", "Potency": "inconclusive: 35.5 µM [inhibitor, single point]"}
{"smiles": "Cc1onc(-c2c(F)cccc2Cl)c1-c1nnc(-c2ccc(C(F)(F)F)cc2)o1", "Potency": "inconclusive: 35.5 µM [inhibitor, partial curve, poor fit]"}
{"smiles": "OCC#CCSc1nnc(-c2ccccc2Br)o1", "Potency": "inactive"}
{"smiles": "O=C(N/N=C\\c1c(O)ccc2ccccc12)c1ccc(S(=O)(=O)N2CCCCC2)cc1", "Potency": "inconclusive: 1.41 µM [inhibitor, partial curve, poor fit]"}
{"smiles": "Cn1cnnc1SCC(=O)N1N=C2/C(=C/c3ccco3)CCCC2C1c1ccco1", "note": "(stereo not given)", "Potency": "inactive"}
{"smiles": "COc1cc(/C=C(/NC(=O)c2ccccc2)C(=O)Nc2ccc(O)cc2)c([N+](=O)[O-])cc1OC", "Potency": "inconclusive: 1.26 µM [inhibitor, full curve]"}
{"smiles": "COc1ccccc1CN(Cc1ccco1)S(=O)(=O)c1ccc(-n2cnnn2)c(OC)c1", "Potency": "inconclusive: 29.1 µM [inhibitor, single point]"}
{"smiles": "COc1ccc(C2CC(c3ccc4ccccc4c3OC(C)=O)=NN2C(=O)/C=C/c2ccccc2)cc1", "note": "(stereo not given)", "Potency": "inconclusive: 1.41 µM [inhibitor, full curve, poor fit]"}
{"smiles": "COc1ccccc1NC(=O)CSc1nnc(C)n1CC1CCCO1", "note": "(stereo not given)", "Potency": "inconclusive: 12.6 µM [activator, partial curve, poor fit]"}
{"smiles": "CCCCSCCCNC(=O)c1ccc(CS(=O)(=O)c2ccc(OC)cc2)o1", "Potency": "inconclusive: 2 µM [inhibitor, partial curve, poor fit]"}
{"smiles": "COc1ccc(CNC(=O)Cn2c(=O)c3cccn3c3cccnc32)cc1", "Potency": "inactive"}
{"smiles": "OC(CN1C2=NCCN2c2ccccc21)c1ccc2c(c1)OCO2", "note": "(stereo not given)", "Potency": "inconclusive: 15.8 µM [inhibitor, single point]"}
{"smiles": "Cc1ccc(S(=O)(=O)c2cccc(S(=O)(=O)N3CCCC3)c2)cc1S(=O)(=O)N1CCCC1", "Potency": "inconclusive: 29.1 µM [inhibitor, single point]"}
{"smiles": "O=C(NCCSc1ccccc1)c1ccc(Br)cc1", "Potency": "active: 12.6 µM"}
{"smiles": "COc1cc(CC(=O)OCC(=O)c2ccc3c(c2)OCCO3)cc(OC)c1OC", "Potency": "inconclusive: 20 µM [inhibitor, partial curve, poor fit]"}
{"smiles": "CCn1cc([N+](=O)[O-])c(C(=O)N2N=C(c3ccc(Cl)c(Cl)c3)CC2c2ccccc2O)n1", "note": "(stereo not given)", "Potency": "inactive"}
{"smiles": "COCc1ccc(C(=O)N2CCc3c([nH]c4ccccc34)C2c2ccccn2)s1", "note": "(stereo not given)", "Potency": "inconclusive: 22.4 µM [inhibitor, single point]"}
{"smiles": "CC(C)(C)C(=O)N1CCC(O)(CS(=O)(=O)Cc2ccc(Cl)cc2)CC1", "Potency": "inactive"}
{"smiles": "O=C(c1ccccc1)c1cc([N+](=O)[O-])ccc1N1CCCC1", "Potency": "inactive"}
{"smiles": "CCCCN(C)CCNC(=O)c1nn(-c2ccc(OC)c(Cl)c2)c(=O)c2c1c1ccccc1n2C", "Potency": "inconclusive: 35.5 µM [activator, single point]"}
{"smiles": "COc1ccc(C(=O)NCCn2cc(SCC(=O)Nc3ccc4c(c3)OCCO4)c3ccccc32)cc1", "Potency": "inconclusive: 35.5 µM [inhibitor, single point]"}
{"smiles": "Cc1cccc(N2CCN(S(=O)(=O)c3cc(C(=O)Nc4ccc(Oc5ccccc5)cc4)ccc3F)CC2C)c1", "note": "(stereo not given)", "Potency": "inconclusive: 1.26 µM [inhibitor, full curve]"}
{"smiles": "N#CCCCn1c(-c2ccccc2)noc1=O", "Potency": "inactive"}
{"smiles": "CCN(CC)S(=O)(=O)c1cccc(NC2=NCC(C)S2)c1", "note": "(stereo not given)", "Potency": "inconclusive: 6.31 µM [inhibitor, partial curve, poor fit]"}
{"smiles": "C/C(=N\\NC(=O)c1ccc(NS(=O)(=O)c2cccs2)cc1)c1ccc(C(C)(C)C)cc1", "Potency": "inconclusive: 28.2 µM [inhibitor, partial curve, poor fit]"}
{"smiles": "O=C(/C=C/Nc1cccc(C(F)(F)F)c1)C(F)(F)F", "Potency": "inactive"}
{"smiles": "Cc1cc(C)cc(NC(=O)N2c3ccccc3NC(=O)CC2C)c1", "note": "(stereo not given)", "Potency": "inactive"}
{"smiles": "CC(=O)c1ccc(NC(=O)c2cccc(NC(=O)c3ccccc3)c2)cc1", "Potency": "inconclusive: 0.398 µM [inhibitor, partial curve, poor fit]"}
{"smiles": "Cc1ccccc1-n1ccnc1SCC(=O)Nc1cccc(S(=O)(=O)NC2=NCCC2)c1", "Potency": "inconclusive: 0.794 µM [inhibitor, partial curve, poor fit]"}
{"smiles": "CCC(Oc1ccccc1F)C(=O)Nc1cc(-c2ccccc2)no1", "note": "(stereo not given)", "Potency": "inactive"}
{"smiles": "Cc1ccc(S(=O)(=O)c2nc(S(=O)(=O)CCO)sc2N2CCOCC2)cc1", "Potency": "inconclusive: 3.55 µM [inhibitor, single point]"}
{"smiles": "Cc1ccc2[nH]c(=O)c(C(c3nnnn3C3CCCC3)N3CCCc4ccccc43)cc2c1", "note": "(stereo not given)", "Potency": "inconclusive: 23.1 µM [inhibitor, single point]"}
{"smiles": "CCOC(=O)Cc1csc(NC(=O)Nc2ccc(Cl)cc2)n1", "Potency": "inconclusive: 10 µM [inhibitor, partial curve, poor fit]"}
{"smiles": "COC(=O)c1nn(-c2nc(-c3cccc(OC)c3)cc(C(F)(F)F)n2)cc1[N+](=O)[O-]", "Potency": "inactive"}
{"smiles": "C/C(=N\\NC(=O)COc1ccc(C(C)(C)C)cc1)c1ccc(OC(F)F)cc1", "Potency": "inconclusive: 12.6 µM [inhibitor, partial curve, poor fit]"}
{"smiles": "COc1ccc(N2C(=O)CC(Sc3nccc(C)n3)C2=O)cc1", "note": "(stereo not given)", "Potency": "inconclusive: 0.316 µM [inhibitor, partial curve, poor fit]"}
{"smiles": "COC(=O)c1ccc(NC(=O)CSc2nncn2-c2ccccn2)cc1", "Potency": "inactive"}
{"smiles": "C=CCn1c(SCC(=O)Nc2ccc(O)cc2)nc2sc(CC)cc2c1=O", "Potency": "inconclusive: 8.91 µM [inhibitor, partial curve, poor fit]"}
{"smiles": "CC(=O)N/C(=C\\c1ccccc1)C(=O)OC(C)C(=O)NCc1ccccc1", "note": "(stereo not given)", "Potency": "inconclusive: 5.62 µM [activator, single point]"}
{"smiles": "Cc1cc(NC2CCCCC2)nc(-n2nc(C)cc2C)n1", "Potency": "inconclusive: 5.17 µM [inhibitor, partial curve, poor fit]"}
{"smiles": "Cc1cc(NC(=O)OC2CCCCC2)ccc1[N+](=O)[O-]", "Potency": "inconclusive: 35.5 µM [inhibitor, single point]"}
{"smiles": "O=C(CCl)N1N=C(c2ccco2)CC1c1cccs1", "note": "(stereo not given)", "Potency": "inactive"}
{"smiles": "CN(C)CCNC(=O)/C(=C/c1ccc(-c2ccc(Cl)cc2)o1)NC(=O)c1ccccc1", "Potency": "inconclusive: 14.1 µM [inhibitor, single point]"}
{"smiles": "CCCN(c1ccccc1F)S(=O)(=O)c1ccc2c(c1)C(C)(C)C(=O)N2C", "Potency": "inconclusive: 6.31 µM [inhibitor, full curve, poor fit]"}
{"smiles": "Cc1cccc(/N=C/c2c(O)ccc3oc4c(c23)CCCC4)n1", "Potency": "inconclusive: 0.794 µM [inhibitor, full curve, poor fit]"}
{"smiles": "CCN(c1ccccc1)S(=O)(=O)c1cc(C(=O)OCC(=O)c2c(N)n(C)c(=O)n(C)c2=O)ccc1C", "Potency": "inconclusive: 20 µM [inhibitor, partial curve]"}
{"smiles": "COc1cccc(-c2nc(-c3ccc(Br)o3)no2)c1", "Potency": "inconclusive: 28.2 µM [inhibitor, single point] and inconclusive: 20 µM [inhibitor, single point]"}
{"smiles": "Cc1ccsc1C(=O)Nc1ccc2c(c1)OCCO2", "Potency": "inconclusive: 1.26 µM [activator, single point]"}
{"smiles": "CN(C)C(=O)CN1C(=O)NC2(CCCc3ccccc32)C1=O", "note": "(stereo not given)", "Potency": "inconclusive: 35.5 µM [activator, partial curve, poor fit]"}
{"smiles": "CS(=O)(=O)c1ccc2nc(NC(=O)CN3C(=O)C4CC=CCC4C3=O)sc2c1", "note": "(stereo not given)", "Potency": "inconclusive: 31.6 µM [activator, single point]"}
{"smiles": "Cc1ccc(NC(=O)CSc2nc3ccccc3c(=O)n2CCCC(=O)N2CCCC2)cc1", "Potency": "inconclusive: 8.2 µM [inhibitor, partial curve]"}
{"smiles": "O=C(/C=C/c1ccc([N+](=O)[O-])cc1)c1ccccc(=O)c1O", "Potency": "inconclusive: 10 µM [inhibitor, partial curve, poor fit]"}
{"smiles": "C/C(=N\\NC(=S)NCc1ccccc1)c1ccc2ccccc2c1", "Potency": "active: 2.31 µM"}
{"smiles": "CCOC(=O)C1(Cc2ccccc2Cl)CCN(Cc2csc(C(C)=O)c2)CC1", "Potency": "inconclusive: 35.5 µM [inhibitor, single point]"}
